# From the supplement of paper PMC8728848
# The other results are listed elsewhere or left out.
# B1: Wzz (Escherichia coli) (protein)
# chain: MRTWKFPSVRVMMRVENNNVSGQNHDPEQIDLIDLLVQLWRGKMTIIISVIVAIVLAIGYLAVAKEKWTSTAIITQPDVGQIAGYNNAMNVIYGQAAPKVSDLQETLIGRFSSAFSALAETLDNQEEPEKLTIEPSVKNQQLPLTVSYVGQTAEGAQMKLAQYIQQVDDKVNQELEKDLKDNIALGRKNLQDSLRTQEVVAQEQKDLRIRQIQEALQYANQAQVTKPQIQQTGEDITQDTLFLLGSEALESMIKHEATRPLVFSSNYYQTRQNLLDIDNLDVDKLDIHAYLYVMKPTLPIRRDSPKKAITLILAVLLGGMVGAGIVLGRNALRNYNAK
# How the values were obtained:
# Experiment in all cases: glycan array binding signal (z-score within array); higher = stronger binding
# Details in all cases: glycan notation: IUPAC condensed, linker removed
# Glc(b1-6)Glc = molecular target: Glc(b1-6)Glc
# Summary of the method: (§1)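 From the Consortium for Functional Glycomics database, 3228 arrays were curated, keeping only those whose protein sequence was available. Binding is given as a within-array Z-score averaged across arrays sharing a protein sequence and across linkers. Negative Z-scores can be read as non-binding.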
# GlcA(b1-3)Gal = molecular target: GlcA(b1-3)Gal
# Summary of the method: as §1
# GlcA(b1-3)GlcNAc = molecular target: GlcA(b1-3)GlcNAc
# Summary of the method: as §1
# GlcA(b1-6)Gal = molecular target: GlcA(b1-6)Gal
# Summary of the method: as §1
# [1] = molecular target: GlcA3S(b1-3)Gal(b1-4)GlcNAc(b1-2)Man
# Summary of the method: as §1
# [2] = molecular target: GlcA3S(b1-3)Gal(b1-4)GlcNAc(b1-3)Gal(b1-4)Glc
# Summary of the method: as §1
# [3] = molecular target: GlcNAc(a1-3)Gal(b1-4)GlcNAc
# Summary of the method: as §1
# [4] = molecular target: GlcNAc(a1-4)Gal(b1-3)GlcNAc
# Summary of the method: as §1
# [5] = molecular target: GlcNAc(a1-4)Gal(b1-4)GalNAc
# Summary of the method: as §1
# [6] = molecular target: GlcNAc(a1-4)Gal(b1-4)GlcNAc
# Summary of the method: as §1
# [7] = molecular target: GlcNAc(a1-4)Gal(b1-4)GlcNAc(b1-3)Gal(b1-4)Glc
# Summary of the method: as §1
# [8] = molecular target: GlcNAc(a1-4)Gal(b1-4)GlcNAc(b1-3)Gal(b1-4)GlcNAc
# Summary of the method: as §1
# [9] = molecular target: GlcNAc(a1-4)Gal(b1-4)GlcNAc(b1-3)Gal(b1-4)GlcNAc(b1-3)Gal(b1-4)GlcNAc
# Summary of the method: as §1
# [10] = molecular target: GlcNAc(a1-4)Gal(b1-4)GlcNAc(b1-3)Gal(b1-4)[Fuc(a1-3)]GlcNAc(b1-3)Gal(b1-4)[Fuc(a1-3)]GlcNAc
# Summary of the method: as §1
# [11] = molecular target: GlcNAc(a1-6)Gal(b1-4)GlcNAc
# Summary of the method: as §1
# [12] = molecular target: GlcNAc(b1-2)Gal(b1-3)GalNAc
# Summary of the method: as §1
# [13] = molecular target: GlcNAc(b1-2)Man(a1-3)[GlcNAc(b1-2)Man(a1-6)]Man(b1-4)GlcNAc(b1-4)GlcNAc
# Summary of the method: as §1
# [14] = molecular target: GlcNAc(b1-2)Man(a1-3)[GlcNAc(b1-2)Man(a1-6)]Man(b1-4)GlcNAc(b1-4)[Fuc(a1-6)]GlcNAc
# Summary of the method: as §1
# [15] = molecular target: GlcNAc(b1-2)Man(a1-3)[GlcNAc(b1-4)][GlcNAc(b1-2)Man(a1-6)]Man(b1-4)GlcNAc(b1-4)GlcNAc
# Summary of the method: as §1
# [16] = molecular target: GlcNAc(b1-2)Man(a1-3)[GlcNAc(b1-4)][GlcNAc(b1-2)Man(a1-6)]Man(b1-4)GlcNAc(b1-4)[Fuc(a1-6)]GlcNAc
# Summary of the method: as §1
# [17] = molecular target: GlcNAc(b1-2)[GlcNAc(b1-4)]Man(a1-3)[GlcNAc(b1-2)Man(a1-6)]Man(b1-4)GlcNAc(b1-4)GlcNAc
# Summary of the method: as §1
# [18] = molecular target: GlcNAc(b1-2)[GlcNAc(b1-4)]Man(a1-3)[GlcNAc(b1-4)][GlcNAc(b1-2)Man(a1-6)]Man(b1-4)GlcNAc(b1-4)GlcNAc
# Summary of the method: as §1
# [19] = molecular target: GlcNAc(b1-2)[GlcNAc(b1-4)]Man(a1-3)[GlcNAc(b1-4)][GlcNAc(b1-2)[GlcNAc(b1-6)]Man(a1-6)]Man(b1-4)GlcNAc(b1-4)GlcNAc
# Summary of the method: as §1
# [20] = molecular target: GlcNAc(b1-2)[GlcNAc(b1-4)]Man(a1-3)[GlcNAc(b1-4)][GlcNAc(b1-2)[GlcNAc(b1-6)]Man(a1-6)]Man(b1-4)GlcNAc(b1-4)[Fuc(a1-6)]GlcNAc
# Summary of the method: as §1
# [21] = molecular target: GlcNAc(b1-2)[GlcNAc(b1-6)]Man(a1-6)[GlcNAc(b1-2)Man(a1-3)]Man(b1-4)GlcNAc(b1-4)GlcNAc
# Summary of the method: as §1
# [22] = molecular target: GlcNAc(b1-2)[GlcNAc(b1-6)]Man(a1-6)[GlcNAc(b1-2)Man(a1-3)]Man(b1-4)GlcNAc(b1-4)[Fuc(a1-6)]GlcNAc
# Summary of the method: as §1
# [23] = molecular target: GlcNAc(b1-2)[GlcNAc(b1-6)]Man(a1-6)[GlcNAc(b1-4)][GlcNAc(b1-2)Man(a1-3)]Man(b1-4)GlcNAc(b1-4)GlcNAc
# Summary of the method: as §1
# GlcNAc(b1-3)Fuc = molecular target: GlcNAc(b1-3)Fuc
# Summary of the method: as §1
# GlcNAc(b1-3)Gal = molecular target: GlcNAc(b1-3)Gal
# Summary of the method: as §1
# [24] = molecular target: GlcNAc(b1-3)Gal(b1-3)GalNAc
# Summary of the method: as §1
# GlcNAc(b1-3)Gal(b1-4)Glc = molecular target: GlcNAc(b1-3)Gal(b1-4)Glc
# Summary of the method: as §1
# [25] = molecular target: GlcNAc(b1-3)Gal(b1-4)GlcNAc
# Summary of the method: as §1
# [26] = molecular target: GlcNAc(b1-3)Gal(b1-4)GlcNAc(b1-2)Man(a1-3)[GlcNAc(b1-3)Gal(b1-4)GlcNAc(b1-2)Man(a1-6)]Man(b1-4)GlcNAc(b1-4)GlcNAc
# Summary of the method: as §1
# [27] = molecular target: GlcNAc(b1-3)Gal(b1-4)GlcNAc(b1-2)Man(a1-3)[GlcNAc(b1-3)Gal(b1-4)GlcNAc(b1-2)Man(a1-6)]Man(b1-4)GlcNAc(b1-4)[Fuc(a1-6)]GlcNAc
# Summary of the method: as §1
# [28] = molecular target: GlcNAc(b1-3)Gal(b1-4)GlcNAc(b1-2)[GlcNAc(b1-3)Gal(b1-4)GlcNAc(b1-6)]Man(a1-6)[GlcNAc(b1-3)Gal(b1-4)GlcNAc(b1-2)Man(a1-3)]Man(b1-4)GlcNAc(b1-4)GlcNAc
# Summary of the method: as §1
# [29] = molecular target: GlcNAc(b1-3)Gal(b1-4)GlcNAc(b1-3)Gal(b1-4)GlcNAc
# Summary of the method: as §1
# [30] = molecular target: GlcNAc(b1-3)Gal(b1-4)GlcNAc(b1-3)Gal(b1-4)GlcNAc(b1-2)Man(a1-3)[GlcNAc(b1-3)Gal(b1-4)GlcNAc(b1-3)Gal(b1-4)GlcNAc(b1-2)Man(a1-6)]Man(b1-4)GlcNAc(b1-4)GlcNAc
# Summary of the method: as §1
binder,measurement,setting,value
B1,glycan array binding signal (z-score),Glc(b1-6)Glc,-0.619
same,glycan array binding signal (z-score),GlcA(b1-3)Gal,1.51
same,glycan array binding signal (z-score),GlcA(b1-3)GlcNAc,0.197
same,glycan array binding signal (z-score),GlcA(b1-6)Gal,1.01
same,glycan array binding signal (z-score),[1],1.07
same,glycan array binding signal (z-score),[2],-0.084
same,glycan array binding signal (z-score),[3],-0.597
same,glycan array binding signal (z-score),[4],-0.185
same,glycan array binding signal (z-score),[5],0.305
same,glycan array binding signal (z-score),[6],-0.192
same,glycan array binding signal (z-score),[7],0.679
same,glycan array binding signal (z-score),[8],0.28
same,glycan array binding signal (z-score),[9],-0.262
same,glycan array binding signal (z-score),[10],0.173
same,glycan array binding signal (z-score),[11],-0.723
same,glycan array binding signal (z-score),[12],-0.1
same,glycan array binding signal (z-score),[13],-0.215
same,glycan array binding signal (z-score),[14],-0.094
same,glycan array binding signal (z-score),[15],-0.166
same,glycan array binding signal (z-score),[16],-0.345
same,glycan array binding signal (z-score),[17],-0.409
same,glycan array binding signal (z-score),[18],-0.534
same,glycan array binding signal (z-score),[19],-0.406
same,glycan array binding signal (z-score),[20],-0.752
same,glycan array binding signal (z-score),[21],-0.845
same,glycan array binding signal (z-score),[22],-0.505
same,glycan array binding signal (z-score),[23],-0.577
same,glycan array binding signal (z-score),GlcNAc(b1-3)Fuc,0.1
same,glycan array binding signal (z-score),GlcNAc(b1-3)Gal,-0.688
same,glycan array binding signal (z-score),[24],-0.471
same,glycan array binding signal (z-score),GlcNAc(b1-3)Gal(b1-4)Glc,0.258
same,glycan array binding signal (z-score),[25],-0.125
same,glycan array binding signal (z-score),[26],-0.684
same,glycan array binding signal (z-score),[27],0.036
same,glycan array binding signal (z-score),[28],0.272
same,glycan array binding signal (z-score),[29],-0.252
same,glycan array binding signal (z-score),[30],0.124

# In another format: results already given.
binder	measurement	setting	value
B1	glycan array binding signal (z-score)	[1]	1.07
same	glycan array binding signal (z-score)	[3]	-0.597
same	glycan array binding signal (z-score)	[10]	0.173
